The results in this text go back to US10322143B2, “Inhibitors of ADAMTS4 or ADAMTS5 for use in preventing or treating cardiac remodeling and chronic heart failure” (Universitetet i Oslo, priority 2013, dated 2019).

The test system of this data set is aortic banding rats. The data set is described as follows: Aortic banding rat model: echocardiography and organ weights after PPS-treatment. The format is in vivo. The conditions noted are these: PPS 6 mg/kg s.c. every third day, mean ± SEM. From the text:
The experimental procedures conformed to the European Convention for the Protection of Vertebrate Animals Used for Experimental and Other Scientific Purposes, and the protocols were approved by the Norwegian Council for Animal Research. Male Wistar rats weighing 160-170 g underwent AB essentially as described previously (Lunde et al. Physiol Genomics 2011. 44(2):162-72). Briefly, the ascending aorta was dissected free through a right hemithoracotomy, and ligated (3-0 silk) against a steel wire. The sham-operated rats (sham) were subjected to the same surgical procedure with a loose suture around the aorta. In all surgical procedures performed, a mixture of 67% N2O, 28% O2, and 4% isoflurane in an anaesthesia chamber was used for preoperative sedation. To maintain anaesthesia preoperatively, a mixture of 69% N2O, 29% O2, and 2% isoflurane was given by the endotracheal tube and the animals were ventilated on a respirator (Zoovent, Triumph Technical Services, Milton Keynes, UK). Buprenorphine was given as postoperative analgesia after AB.
In vivo heart function was evaluated using the Vevo2100 system (Visualsonics Inc, Canada) as previously described (Sjaastad et al. J Appl Physiol 2000; 89:1445-54). Thereafter, the heart was excised under deep anaesthesia, washed in saline and blotted dry to remove blood in the cardiac chambers. […]

pentosan polysulfate [PPS]: the Body wt by setting is: (aortic banding rats, six weeks after AB) 363 ± 6 g; (sham-operated rats, six weeks) 408 ± 18 g.
